These results are taken from paper PMC7819943, “Rice protein-binding microarrays: a tool to detect cis-acting elements near promoter regions in rice”.

Sequences of proteins named here, by UniProt entry; tags and fusion partners are left off.
UniProt Q0JBA9, entry or part of it: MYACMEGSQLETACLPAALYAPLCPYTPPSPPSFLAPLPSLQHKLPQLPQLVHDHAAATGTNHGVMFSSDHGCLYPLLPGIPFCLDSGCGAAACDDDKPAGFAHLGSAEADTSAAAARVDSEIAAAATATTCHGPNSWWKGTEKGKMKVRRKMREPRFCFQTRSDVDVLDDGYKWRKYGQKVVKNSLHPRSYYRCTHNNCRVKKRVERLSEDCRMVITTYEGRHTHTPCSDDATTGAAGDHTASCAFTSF

The list shows a part of the results.

The test has as its target OsWRKY34 (Oryza sativa, UniProt Q0JBA9 1-250). The test is described as follows: protein-binding microarray (RPBM); PBS, 2% BSA, 51.3 ng/ul salmon testes DNA, 50 uM zinc acetate, 200 nM TF, 25 C, 1 h; high values mean tight binding. Conditions: protein: recombinant; tags: N-terminal polyhistidine and DsRed monomer fusion (pET32a); label: CyDye5-dUTP incorporated in the synthesized complementary strand; 3' TTTTT single-stranded linker to array surface; dsDNA, one strand shown. The essentials:
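Using Ni–NTA, transcription factors fused N-terminally to polyhistidine and DsRed were purified after expression in E. coli BL21-CodonPlus. These were incubated at 200 nM with a blocked, double-stranded custom Agilent array for 1 h at 25 °C in a buffer containing 50 µM zinc acetate, and the array was washed. The binding signal is per-feature fluorescence intensity (arbitrary units) on an Axon 4000B scanner.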
On to “GTTTCATATTTTACGCTTTGACTTTTGCAAAATCAATTTTCGGAGTCACCTAGTGCAG”, for which the binding signal is 13500 fluorescence intensity (a.u.). Then “TGATTTGCGCGAGGGTTTGGTTTGGTTTGGTTTGAGTCGACGGAGTCACCTAGTGCAG”, with 19200 fluorescence intensity (a.u.); and “ATTTCTTCGTTATAATTTAATCTTACTTTTCAACTTAAAACGGAGTCACCTAGTGCAG”, with 8790 fluorescence intensity (a.u.); and “CTACCCACACCTCAACAGTTTTTCCTGTTCCACCCTTCTTCGGAGTCACCTAGTGCAG”, with 10800 fluorescence intensity (a.u.).

With “CTCGCTCCGCTTCCATCCATATTCCACCGCATCGCGCGCGCGGAGTCACCTAGTGCAG”, the binding signal is 9710 fluorescence intensity (a.u.). Then “GCTGCTTCTTACTTCTGGTCAAACACCATCAATGCATTTTCGGAGTCACCTAGTGCAG”, with 8740 fluorescence intensity (a.u.); and “TTCTCTTCGACTTTTCTCCTCCACAGCCGCCAAGCTGACGCGGAGTCACCTAGTGCAG”, with 9700 fluorescence intensity (a.u.); and “ACTTGAGACGATCGAACTGCTAATTGCAGCTCATAATTTTCGGAGTCACCTAGTGCAG”, with 8150 fluorescence intensity (a.u.). Then “TTGCTCGGGGCGATTGGGCCATGCGAGGTGCGGGATTTGACGGAGTCACCTAGTGCAG”, with 8090 fluorescence intensity (a.u.); and “TTTGTTTCTACTCTGTCTGTCTGATTGTTTGTGCTTCTGTCGGAGTCACCTAGTGCAG”, with 13300 fluorescence intensity (a.u.). Consider “CCATTGTTGGCCCGTTGCTTCCTCTACTCTTTTTGTGGGACGGAGTCACCTAGTGCAG”, for which the binding signal was 15400 fluorescence intensity (a.u.).

For “GAGAGTTGAGACATGGTAGCGGGCGGGTTTGTTAGCCATGCGGAGTCACCTAGTGCAG”, the binding signal is 9900 fluorescence intensity (a.u.). For “ATTATTTACCTGAATTGCCACCGCGTACCGCTTCGTTTCTCGGAGTCACCTAGTGCAG” the value was 10300 fluorescence intensity (a.u.). Regarding “CTATTAGGTTGGGCCTAAGGTGATCTATTTTTGCGTGGTTCGGAGTCACCTAGTGCAG”, the binding signal was 9340 fluorescence intensity (a.u.). As for “AATGCTTGTCTGATCCGTTTTCTCCTACTCTTGTAATTAACGGAGTCACCTAGTGCAG”, the binding signal was 9360 fluorescence intensity (a.u.). For “GTCCATCTATCCTACCTATCGCTTTATATATCCATGCATGCGGAGTCACCTAGTGCAG”, the binding signal was 9200 fluorescence intensity (a.u.). Then “CATCCCCACTTCCAGCGCATCGATCCCCACCTCCGATGGACGGAGTCACCTAGTGCAG”, with 8270 fluorescence intensity (a.u.). Then “GACAGACGCAATCGCATGCAAACGTATCGCCTTCAATTTTCGGAGTCACCTAGTGCAG”, with 8960 fluorescence intensity (a.u.); and “TAGTGTATCATTCATTCGCCTTGTCATGCTATTCAAATGACGGAGTCACCTAGTGCAG”, with 8580 fluorescence intensity (a.u.).

On to “GGTCTCAGGTTGTCACTTTTCTATCCAGATTTATCGTAGTCGGAGTCACCTAGTGCAG”, for which the binding signal is 8110 fluorescence intensity (a.u.). For “GAAGGGGAAGGGAGGGGATGAGATAGTTGGGCTCGTACCTCGGAGTCACCTAGTGCAG” the value was 8260 fluorescence intensity (a.u.).

Turning to “ATGTGACTGAAAAGTTGTGTGTGTATGACAGGTTGATGTGCGGAGTCACCTAGTGCAG”, the binding signal is 8030 fluorescence intensity (a.u.). Then “ACTATGTTGCTTTGTTTTCTTGATTCAACTCCGTACATTCCGGAGTCACCTAGTGCAG”, with 9040 fluorescence intensity (a.u.).

“ACTCAACTATTTCTATCATTGATCGACTCCATCTGATTCACGGAGTCACCTAGTGCAG”: the binding signal is 10300 fluorescence intensity (a.u.).

As for “TGTTAAAAGTTCTTCCTTATTTGCTTACTCCTAGTCAATTCGGAGTCACCTAGTGCAG”, the binding signal is 8770 fluorescence intensity (a.u.). For “CGTCATCCACGGTCTGACCACTCTATCACCGCCAGTCTGACGGAGTCACCTAGTGCAG” the value was 9130 fluorescence intensity (a.u.); for “TCTACCTCTATGCCATGCATCCTTTGCTGCTAATTGTACACGGAGTCACCTAGTGCAG”, 9590 fluorescence intensity (a.u.). Then “AGGATTTAGTGGGGTATTATAATTTCATGGTAAGATAGGACGGAGTCACCTAGTGCAG”, with 9910 fluorescence intensity (a.u.); and “TTGTCATCTTTGGGTTACCAACTTGTTTTGATGTTGGATTCGGAGTCACCTAGTGCAG”, with 9680 fluorescence intensity (a.u.). For “AAGGTTGGCATGACAATTCTCACTACTTGGACTAACAGTTCGGAGTCACCTAGTGCAG” the value was 8310 fluorescence intensity (a.u.); for “TGCATTTTTTGTCAACTATGGGTCGTGTTCAATATTTTCTCGGAGTCACCTAGTGCAG”, 9490 fluorescence intensity (a.u.); for “TGCTGTGAGACACCCGAAGATCGTATATTTGCTCGTGGACCGGAGTCACCTAGTGCAG”, 8110 fluorescence intensity (a.u.). As for “CGTTTTTTTGTGCGCAATTCCTCTTTTAAGTGGCTTTCATCGGAGTCACCTAGTGCAG”, the binding signal is 8540 fluorescence intensity (a.u.). For “AAGTCGGTTTTATTTTTTTTCTATTCAAATTTTATTTAAGCGGAGTCACCTAGTGCAG” the value was 9250 fluorescence intensity (a.u.). With “TCATCAGCAAGACCAGCAACCACTCGAGACTGTTTATCTCCGGAGTCACCTAGTGCAG”, the binding signal was 10300 fluorescence intensity (a.u.). Regarding “CGAACATGGCCGATCGAATATGCGTCGTCTGTACCCGTACCGGAGTCACCTAGTGCAG”, the binding signal is 9320 fluorescence intensity (a.u.). As to “ACCTGTCAGCGTGGCCCGTCTAGTTTTGTCCCAGTCCCAGCGGAGTCACCTAGTGCAG”, the binding signal was 9450 fluorescence intensity (a.u.). For “CCTCCTGCCCGCCGCCGCCGCTTTGGTCCTCGCCCGCATGCGGAGTCACCTAGTGCAG” the value was 13300 fluorescence intensity (a.u.); for “AATAGTCTGCTATTGTACCTGCTCTGAACTGTTGCCCATTCGGAGTCACCTAGTGCAG”, 8120 fluorescence intensity (a.u.); for “GTTTATTTTTCAGCCTTTGCTTTTAGATCACTAACAAGTTCGGAGTCACCTAGTGCAG”, 9920 fluorescence intensity (a.u.). For “TTGTTCTCTTTTTTTTTGCGTGCGTTGACTTTATCTTCAACGGAGTCACCTAGTGCAG” the value was 19900 fluorescence intensity (a.u.); for “CACTATATATATCATTCTCATTTGTATGTTTACGTAGTATCGGAGTCACCTAGTGCAG”, 9790 fluorescence intensity (a.u.).
